Results deposited as PubChem BioAssay AID602196 (INSERM, 2012).
This is a random part of about 23,000 deposited reagents. Of all reagents, 455 (2%) got an active call. 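Active includes both protection and sensitisation; some change values fall well beyond the stated -50 to +50 range.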 Unmarked entries are inactive. Reagent sequences are not shown. Not stated in the record: the amount of reagent.

- Assay: 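Modifiers of cisplatin sensitivity in A549 cells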
- Cells: human A549 lung cancer cells
- Knock-down reagent: siRNA pair against human genes
- Time to read-out: 48 h transfection before cisplatin; time from cisplatin to read-out not stated
- Treatment: cisplatin at a dose killing half of control-siRNA cells; exact dose and duration not given
- Measured: 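Cisplatin cell death as a shift from the 50% death seen with control siRNA; siRNAs toxic or growth-blocking alone scored 0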
- Direction: two-siRNA summed score (-2 to +2): higher = both siRNAs protect from cisplatin killing; -2 means both sensitise; mean protection from cisplatin (shift in death) and protection from cisplatin (shift in death), siRNA C and protection from cisplatin (shift in death), siRNA D: higher = protection from cisplatin killing
- Rule for the call: 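Each siRNA scores 0 if harmful alone by LDH or WST-1, otherwise +1 if it reduces and -1 if it increases cisplatin killing; a gene is active when both siRNAs agree (sum +2 or -2)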
- Calls: active = both siRNAs shift cisplatin killing the same way; inactive = no consistent shift, or siRNA harmful alone

no.	target gene	PubChem SID	two-siRNA summed score (-2 to +2)	mean protection from cisplatin (shift in death) (%)	protection from cisplatin (shift in death), siRNA C (%)	protection from cisplatin (shift in death), siRNA D (%)
1	DRICH1 (aspartate rich 1)	SID131517693	0	14.4	13.9	14.9
2	WDR20 (WD repeat domain 20)	SID131514814	0	8.3	14.4	2.1
3	LRPPRC (leucine rich pentatricopeptide repeat containing)	SID131519268	1	4.3	9.7	-1.1
4	GOLIM4 (golgi integral membrane protein 4)	SID131516201	0	10.4	11.3	9.6
5	DNAJC14 (DnaJ heat shock protein family (Hsp40) member C14)	SID131514347	0	7.7	10.9	4.5
6	EDC4 (enhancer of mRNA decapping 4)	SID131516688	0	11.4	10.6	12.3
7	TAF11 (TATA-box binding protein associated factor 11)	SID131504566	0	-5.1	-5.2	-5
8	LOC401206	SID131516936	0	12	6.2	17.8
9	SIMC1 (SUMO interacting motifs containing 1)	SID131507785	0	0.3	0.5	0.1
10	CTRL (chymotrypsin like)	SID131502041	-1	-5.7	1.8	-13.2
11	CD1B (CD1b molecule)	SID131511674	0	4.6	13.6	-4.4
12	SEMA5B (semaphorin 5B)	SID131521119	1	12.3	16.3	8.2
13	LOC442423	SID131514719	0	8.2	0.2	16.2
14	CACNA1E (calcium voltage-gated channel subunit alpha1 E)	SID131500795	-1	-15.9	-1.3	-30.5
15	CNTD1 (cyclin N-terminal domain containing 1)	SID131518922	1	-4.9	15.4	-25.1
16	SORBS3 (sorbin and SH3 domain containing 3)	SID131509446	0	2.2	-6	10.3
17	ARID2 (AT-rich interaction domain 2)	SID131509103	0	1.8	4.1	-0.5
18	KBTBD3 (kelch repeat and BTB domain containing 3)	SID131522716	1	22.3	24	20.6
19	PSAT1 (phosphoserine aminotransferase 1)	SID131514856	0	8.3	10	6.7
20	HIC2 (HIC ZBTB transcriptional repressor 2)	SID131516356	0	10.7	16.4	5.1
21	SYNCRIP (synaptotagmin binding cytoplasmic RNA interacting protein)	SID131521094	1	12.2	15.8	8.6
22	LAT2 (linker for activation of T cells family member 2)	SID131505812	0	-2.5	-11.9	6.8
23	NUBPL (NUBP iron-sulfur cluster assembly factor, mitochondrial)	SID131502506	-1	-1.7	-23.6	20.2

2 successive records from above, quoted:
no.	target gene	PubChem SID	two-siRNA summed score (-2 to +2)	mean protection from cisplatin (shift in death) (%)	protection from cisplatin (shift in death), siRNA C (%)	protection from cisplatin (shift in death), siRNA D (%)
19	PSAT1 (phosphoserine aminotransferase 1)	SID131514856	0	8.3	10	6.7
20	HIC2 (HIC ZBTB transcriptional repressor 2)	SID131516356	0	10.7	16.4	5.1
